Laboratory results: PubChem BioAssay AID504791 (Drosophila RNAi Screening Center, 2011)
Assay: 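Genes whose knock-down strengthens or weakens small-RNA reporter silencing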 (primary screen). Cells: Drosophila S2-derived reporter cells. Reagents: long dsRNA against Drosophila genes, about 150-250 ng dsRNA per well (siRNA assay); about 80-120 ng (miRNA assay). Duration: about 5 days (siRNA assay); about 4 days (miRNA assay). Treatment: copper sulfate induction of reporters: 25 µM (siRNA assay); 200 mM stated (miRNA assay), 1-2 days before reading. Measurement: 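Dual luciferase assay: Renilla to firefly signal ratio in each well, scaled to the mean ratio of its plate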. Direction: siRNA reporter hit score: higher = 3 marks a strong hit with raised ratio; -3 a strong hit with lowered ratio. Call rule: 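First-pass picks had plate-scaled ratios over 1.5 for the siRNA assay, over 1.6 for the miRNA assay, or under 0.6; two distinct dsRNAs had to score alike on retest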.
In all, the deposit lists about 23,000 reagents; this is an unselected part of those that have a named target and a result. Of all reagents, 199 (0.86%) are marked active. 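Plate-scaled ratios behind the calls are not deposited; printed light signals are raw; many rows marked increased or decreased are still called inactive.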 Names joined by + are all predicted targets of the reagent.

no.	Gene	dsRNA	siRNA reporter hit score	stable siRNA reporter change	miRNA reporter change	stable assay Renilla, run 1 (luminescence)	stable assay firefly, run 1 (luminescence)	outcome
1	bab2 (bric a brac 2)	DRSC08150				4987	2.91e5	inactive
2	bab2 (bric a brac 2)	DRSC08380				5156	2.69e5	inactive
3	CG12713	DRSC09900				7191	2.74e5	inactive
4	CG2765	DRSC04315			reporter ratio lowered past the hit cutoff	14256	1.02e6	inactive
5	Cpr11A (Cuticular protein 11A)	DRSC19861				5379	5.30e5	inactive
6	GstE7 (Glutathione S transferase E7)	DRSC06677				9555	3.11e5	inactive
7	dob (doppelganger von brummer)	DRSC19948				7211	4.63e5	inactive
8	dare + CG30033	DRSC22908				3791	3.27e5	inactive
9	Sptr (Sepiapterin reductase)	DRSC18719				9535	5.86e5	inactive
10	Tango6 (Transport and Golgi organization 6)	DRSC02671				10831	1.06e6	inactive
11	s-cup (stanley-cup)	DRSC06277				4899	2.23e5	inactive
12	s-cup (stanley-cup)	DRSC06278				5063	2.72e5	inactive
13	CG7168	DRSC16208				8090	2.64e5	inactive
14	CG12746	DRSC12218				7831	4.52e5	inactive
15	sand (sandman)	DRSC07245				7275	4.12e5	inactive
16	CG12680	DRSC17871				5804	3.55e5	inactive
17	Cyp312a1 (Cytochrome P450 312a1)	DRSC11128				7154	2.73e5	inactive
18	kirre (kin of irre)	DRSC18785				7250	3.87e5	inactive
19	CG17571	DRSC01768				5888	3.33e5	inactive
20	CG17571	DRSC03755				6926	3.86e5	inactive
21	Idgf6 (Imaginal disc growth factor 6)	DRSC07360				11353	4.07e5	inactive
22	Kcmf1 (Potassium channel modulatory factor 1)	DRSC14459				9757	3.52e5	inactive
23	sc (scute)	DRSC18830				6215	4.79e5	inactive
24	Sema2b (Semaphorin 2b)	DRSC05609				6086	3.97e5	inactive
25	Sema2b (Semaphorin 2b)	DRSC05611				7183	4.71e5	inactive
26	Sema2b (Semaphorin 2b)	DRSC06867				5734	3.39e5	inactive
27	CG14072	DRSC02375				8271	4.79e5	inactive
28	CG7115	DRSC02000				6424	4.29e5	inactive
29	Pmvk (Phosphomevalonate kinase)	DRSC02032				6126	3.67e5	inactive
30	LBR (Lamin B receptor)	DRSC04298				13409	1.42e6	inactive
31	Muc14A (Mucin 14A)	DRSC23264				6363	4.64e5	inactive
32	Zw (Zwischenferment)	DRSC20303				7020	4.95e5	inactive
33	woc (without children)	DRSC15928				7295	3.34e5	inactive
34	ppl (pumpless)	DRSC11899				8186	4.39e5	inactive
35	Cul3 (Cullin 3)	DRSC03537				12438	1.19e6	inactive
36	Cul3 (Cullin 3)	DRSC21525				9368	4.61e5	inactive
37	Cul3 (Cullin 3)	DRSC27885			reporter ratio raised past the hit cutoff			inactive
38	dachs	DRSC02072			reporter ratio lowered past the hit cutoff	6.31e5	4.74e5	inactive
39	dachs	DRSC02191				7188	4.53e5	inactive
40	CG13428	DRSC06390				7190	4.00e5	inactive
41	Aptx (aprataxin)	DRSC15768				9853	5.14e5	inactive
42	CG42827 + CG42828	DRSC16116				3435	3.99e5	inactive
43	CG6418	DRSC10633				9490	6.96e5	inactive
44	Mcm5 (Minichromosome maintenance 5)	DRSC16735				6698	3.53e5	inactive
45	CG4836	DRSC15659				7124	3.00e5	inactive
46	CG5665	DRSC11783				6879	4.54e5	inactive
47	CG7556	DRSC20052	-3	reporter ratio lowered past the hit cutoff		2308	2.82e5	inactive
48	CG3123	DRSC00570				7768	4.56e5	inactive
49	Kpc1 (Kip1 ubiquitination-promoting complex subunit 1)	DRSC16107				9433	6.71e5	inactive
50	CG31528	DRSC12003				5642	3.09e5	inactive
51	Arglu1 (Arginine and glutamate rich 1)	DRSC02909				8331	3.76e5	inactive
52	Map205 (Microtubule-associated protein 205)	DRSC16732				10019	4.61e5	inactive
53	MCPH1 (Microcephalin)	DRSC06309		reporter ratio raised past the hit cutoff	reporter ratio raised past the hit cutoff	14100	4.73e5	inactive
54	MCPH1 (Microcephalin)	DRSC07308				5668	3.53e5	inactive
55	MCPH1 (Microcephalin)	DRSC22536				4155	3.48e5	inactive
56	MCPH1 (Microcephalin)	DRSC28302			reporter ratio raised past the hit cutoff			inactive
57	CG14154	DRSC10156				6235	3.81e5	inactive
58	CG2854	DRSC18595				5966	3.81e5	inactive
59	Wdr62 (WD repeat domain 62)	DRSC00081				5259	4.17e5	inactive
60	Wdr62 (WD repeat domain 62)	DRSC00082				5163	4.37e5	inactive
61	Wdr62 (WD repeat domain 62)	DRSC00701				17525	4.47e5	inactive
62	Wdr62 (WD repeat domain 62)	DRSC21913				9055	5.76e5	inactive
63	otk (off-track)	DRSC07658				5287	2.96e5	inactive
64	Nepl8 (Neprilysin-like 8)	DRSC02759				7443	4.81e5	inactive
65	unc-13	DRSC17192				7822	4.28e5	inactive
66	unc-13	DRSC17193				7783	4.09e5	inactive
67	unc-13	DRSC17223				6859	4.47e5	inactive
68	su(f) (suppressor of forked)	DRSC20907				6068	3.70e5	inactive
69	CG13066	DRSC09949				7320	3.54e5	inactive
70	Or7a (Odorant receptor 7a)	DRSC18691				5191	3.14e5	inactive
71	Cadps (Calcium-dependent secretion activator)	DRSC21057				5451	3.99e5	inactive
72	Cadps (Calcium-dependent secretion activator)	DRSC22200				8930	5.55e5	inactive
73	CG31933	DRSC00457				8734	5.43e5	inactive
74	CG3699	DRSC18171				7367	3.88e5	inactive
75	CG3699	DRSC18642				6672	4.75e5	inactive
76	eyg (eyegone)	DRSC11344		reporter ratio raised past the hit cutoff		5731	2.12e5	inactive
77	eyg (eyegone)	DRSC23136				5575	3.31e5	inactive
78	eyg (eyegone)	DRSC26636			reporter ratio raised past the hit cutoff			inactive
79	CG8245	DRSC04901				5708	4.86e5	inactive
80	porin	DRSC03594				5767	6.02e5	inactive
81	CG2924	DRSC18525				6219	3.08e5	inactive
82	CG6329	DRSC06976				8022	4.07e5	inactive
83	sano (serrano)	DRSC06165				11449	4.42e5	inactive

Records above whose target name begins with M or m (7):
Gene	dsRNA	siRNA reporter hit score	stable siRNA reporter change	miRNA reporter change	stable assay Renilla, run 1 (luminescence)	stable assay firefly, run 1 (luminescence)	outcome
Muc14A (Mucin 14A)	DRSC23264				6363	4.64e5	inactive
Mcm5 (Minichromosome maintenance 5)	DRSC16735				6698	3.53e5	inactive
Map205 (Microtubule-associated protein 205)	DRSC16732				10019	4.61e5	inactive
MCPH1 (Microcephalin)	DRSC06309		reporter ratio raised past the hit cutoff	reporter ratio raised past the hit cutoff	14100	4.73e5	inactive
MCPH1 (Microcephalin)	DRSC07308				5668	3.53e5	inactive
MCPH1 (Microcephalin)	DRSC22536				4155	3.48e5	inactive
MCPH1 (Microcephalin)	DRSC28302			reporter ratio raised past the hit cutoff			inactive
